According to the supplement of paper PMC10849652:
The other results are listed elsewhere or left out.

The chains behind the UniProt entries cited, without tags or fusion partners. Where a name states a change or a piece, a line headed by the entry shows the natural chain unless it says otherwise.
UniProt P24390: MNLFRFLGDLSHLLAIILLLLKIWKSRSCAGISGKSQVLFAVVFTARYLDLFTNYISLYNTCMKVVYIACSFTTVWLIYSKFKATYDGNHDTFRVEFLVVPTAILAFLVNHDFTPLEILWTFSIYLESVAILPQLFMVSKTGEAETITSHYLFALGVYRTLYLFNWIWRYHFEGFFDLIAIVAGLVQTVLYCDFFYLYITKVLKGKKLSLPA
UniProt P01591, whole entry, looked up: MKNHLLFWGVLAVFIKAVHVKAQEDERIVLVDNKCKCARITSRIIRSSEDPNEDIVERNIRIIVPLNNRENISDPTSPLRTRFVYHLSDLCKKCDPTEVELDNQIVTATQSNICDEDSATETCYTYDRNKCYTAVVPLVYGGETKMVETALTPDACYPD
UniProt Q13351: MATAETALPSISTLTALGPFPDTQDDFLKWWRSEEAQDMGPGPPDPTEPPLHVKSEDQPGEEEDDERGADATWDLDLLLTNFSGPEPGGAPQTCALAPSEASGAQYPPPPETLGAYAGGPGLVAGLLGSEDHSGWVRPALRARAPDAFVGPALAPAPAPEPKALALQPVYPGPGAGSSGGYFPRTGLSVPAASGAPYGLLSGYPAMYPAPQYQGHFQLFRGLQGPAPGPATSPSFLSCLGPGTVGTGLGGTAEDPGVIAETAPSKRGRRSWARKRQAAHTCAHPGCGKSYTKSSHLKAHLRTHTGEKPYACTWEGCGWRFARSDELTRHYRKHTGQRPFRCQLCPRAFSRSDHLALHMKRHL
UniProt O60268: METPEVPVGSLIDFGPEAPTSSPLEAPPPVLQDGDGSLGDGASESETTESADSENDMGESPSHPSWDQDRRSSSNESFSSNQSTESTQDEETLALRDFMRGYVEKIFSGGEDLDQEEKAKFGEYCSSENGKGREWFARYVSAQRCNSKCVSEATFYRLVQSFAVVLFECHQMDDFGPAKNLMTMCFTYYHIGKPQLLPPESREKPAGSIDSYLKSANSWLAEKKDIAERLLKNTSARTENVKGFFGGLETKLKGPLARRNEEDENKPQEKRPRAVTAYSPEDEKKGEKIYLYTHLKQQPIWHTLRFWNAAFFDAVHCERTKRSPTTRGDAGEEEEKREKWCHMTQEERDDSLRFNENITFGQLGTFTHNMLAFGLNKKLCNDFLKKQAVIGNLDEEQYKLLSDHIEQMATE
UniProt Q8IXQ5, whole entry, looked up: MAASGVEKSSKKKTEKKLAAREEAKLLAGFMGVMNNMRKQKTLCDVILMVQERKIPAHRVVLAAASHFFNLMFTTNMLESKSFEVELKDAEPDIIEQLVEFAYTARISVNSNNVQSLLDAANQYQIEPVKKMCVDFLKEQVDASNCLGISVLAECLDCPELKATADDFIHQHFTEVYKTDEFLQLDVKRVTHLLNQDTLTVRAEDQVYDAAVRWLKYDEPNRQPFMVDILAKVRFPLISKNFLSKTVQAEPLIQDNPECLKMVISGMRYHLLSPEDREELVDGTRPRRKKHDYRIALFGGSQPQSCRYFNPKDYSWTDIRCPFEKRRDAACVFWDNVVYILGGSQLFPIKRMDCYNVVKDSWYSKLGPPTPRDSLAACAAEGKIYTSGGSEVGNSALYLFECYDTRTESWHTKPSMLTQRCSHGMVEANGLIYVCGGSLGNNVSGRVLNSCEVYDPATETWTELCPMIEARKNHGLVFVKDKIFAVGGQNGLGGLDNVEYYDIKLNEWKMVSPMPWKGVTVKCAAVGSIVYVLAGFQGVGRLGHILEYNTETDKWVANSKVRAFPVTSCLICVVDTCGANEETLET
UniProt O76095: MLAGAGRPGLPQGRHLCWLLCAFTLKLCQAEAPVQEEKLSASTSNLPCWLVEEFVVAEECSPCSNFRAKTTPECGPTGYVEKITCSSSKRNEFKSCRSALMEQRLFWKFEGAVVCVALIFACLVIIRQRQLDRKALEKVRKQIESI
UniProt Q9H9V9: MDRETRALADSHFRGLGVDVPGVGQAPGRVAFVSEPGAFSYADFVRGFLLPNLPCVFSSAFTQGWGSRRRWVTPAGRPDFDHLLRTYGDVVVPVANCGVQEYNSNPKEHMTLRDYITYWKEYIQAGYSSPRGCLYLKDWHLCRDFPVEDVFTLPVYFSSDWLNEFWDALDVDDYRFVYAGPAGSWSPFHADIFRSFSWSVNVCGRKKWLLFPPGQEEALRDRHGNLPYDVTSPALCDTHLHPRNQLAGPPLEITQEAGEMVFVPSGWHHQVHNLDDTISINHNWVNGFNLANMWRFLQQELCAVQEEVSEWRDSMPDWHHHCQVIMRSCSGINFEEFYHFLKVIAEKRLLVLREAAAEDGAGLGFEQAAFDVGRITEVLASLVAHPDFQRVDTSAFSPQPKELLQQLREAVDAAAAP
UniProt Q9BXK1: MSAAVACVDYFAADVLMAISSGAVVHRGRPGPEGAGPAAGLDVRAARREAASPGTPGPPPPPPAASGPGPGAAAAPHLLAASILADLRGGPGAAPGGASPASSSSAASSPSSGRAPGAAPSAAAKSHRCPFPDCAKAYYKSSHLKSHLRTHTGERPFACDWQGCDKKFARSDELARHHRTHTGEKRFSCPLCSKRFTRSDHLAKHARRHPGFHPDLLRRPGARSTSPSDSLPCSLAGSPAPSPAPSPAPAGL
UniProt O95279: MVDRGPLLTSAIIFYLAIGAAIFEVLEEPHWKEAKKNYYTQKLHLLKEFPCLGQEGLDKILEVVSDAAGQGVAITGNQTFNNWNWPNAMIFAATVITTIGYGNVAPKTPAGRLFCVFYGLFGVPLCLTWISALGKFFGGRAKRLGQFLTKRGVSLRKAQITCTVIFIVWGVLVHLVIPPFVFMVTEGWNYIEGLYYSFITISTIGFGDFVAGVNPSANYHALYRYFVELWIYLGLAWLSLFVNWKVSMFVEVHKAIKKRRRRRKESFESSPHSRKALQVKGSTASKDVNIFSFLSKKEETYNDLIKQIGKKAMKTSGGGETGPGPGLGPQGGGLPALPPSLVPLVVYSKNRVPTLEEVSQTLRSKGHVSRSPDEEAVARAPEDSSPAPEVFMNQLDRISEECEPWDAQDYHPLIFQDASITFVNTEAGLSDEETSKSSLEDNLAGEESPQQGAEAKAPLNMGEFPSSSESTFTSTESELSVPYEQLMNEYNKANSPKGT
UniProt Q9ULI4: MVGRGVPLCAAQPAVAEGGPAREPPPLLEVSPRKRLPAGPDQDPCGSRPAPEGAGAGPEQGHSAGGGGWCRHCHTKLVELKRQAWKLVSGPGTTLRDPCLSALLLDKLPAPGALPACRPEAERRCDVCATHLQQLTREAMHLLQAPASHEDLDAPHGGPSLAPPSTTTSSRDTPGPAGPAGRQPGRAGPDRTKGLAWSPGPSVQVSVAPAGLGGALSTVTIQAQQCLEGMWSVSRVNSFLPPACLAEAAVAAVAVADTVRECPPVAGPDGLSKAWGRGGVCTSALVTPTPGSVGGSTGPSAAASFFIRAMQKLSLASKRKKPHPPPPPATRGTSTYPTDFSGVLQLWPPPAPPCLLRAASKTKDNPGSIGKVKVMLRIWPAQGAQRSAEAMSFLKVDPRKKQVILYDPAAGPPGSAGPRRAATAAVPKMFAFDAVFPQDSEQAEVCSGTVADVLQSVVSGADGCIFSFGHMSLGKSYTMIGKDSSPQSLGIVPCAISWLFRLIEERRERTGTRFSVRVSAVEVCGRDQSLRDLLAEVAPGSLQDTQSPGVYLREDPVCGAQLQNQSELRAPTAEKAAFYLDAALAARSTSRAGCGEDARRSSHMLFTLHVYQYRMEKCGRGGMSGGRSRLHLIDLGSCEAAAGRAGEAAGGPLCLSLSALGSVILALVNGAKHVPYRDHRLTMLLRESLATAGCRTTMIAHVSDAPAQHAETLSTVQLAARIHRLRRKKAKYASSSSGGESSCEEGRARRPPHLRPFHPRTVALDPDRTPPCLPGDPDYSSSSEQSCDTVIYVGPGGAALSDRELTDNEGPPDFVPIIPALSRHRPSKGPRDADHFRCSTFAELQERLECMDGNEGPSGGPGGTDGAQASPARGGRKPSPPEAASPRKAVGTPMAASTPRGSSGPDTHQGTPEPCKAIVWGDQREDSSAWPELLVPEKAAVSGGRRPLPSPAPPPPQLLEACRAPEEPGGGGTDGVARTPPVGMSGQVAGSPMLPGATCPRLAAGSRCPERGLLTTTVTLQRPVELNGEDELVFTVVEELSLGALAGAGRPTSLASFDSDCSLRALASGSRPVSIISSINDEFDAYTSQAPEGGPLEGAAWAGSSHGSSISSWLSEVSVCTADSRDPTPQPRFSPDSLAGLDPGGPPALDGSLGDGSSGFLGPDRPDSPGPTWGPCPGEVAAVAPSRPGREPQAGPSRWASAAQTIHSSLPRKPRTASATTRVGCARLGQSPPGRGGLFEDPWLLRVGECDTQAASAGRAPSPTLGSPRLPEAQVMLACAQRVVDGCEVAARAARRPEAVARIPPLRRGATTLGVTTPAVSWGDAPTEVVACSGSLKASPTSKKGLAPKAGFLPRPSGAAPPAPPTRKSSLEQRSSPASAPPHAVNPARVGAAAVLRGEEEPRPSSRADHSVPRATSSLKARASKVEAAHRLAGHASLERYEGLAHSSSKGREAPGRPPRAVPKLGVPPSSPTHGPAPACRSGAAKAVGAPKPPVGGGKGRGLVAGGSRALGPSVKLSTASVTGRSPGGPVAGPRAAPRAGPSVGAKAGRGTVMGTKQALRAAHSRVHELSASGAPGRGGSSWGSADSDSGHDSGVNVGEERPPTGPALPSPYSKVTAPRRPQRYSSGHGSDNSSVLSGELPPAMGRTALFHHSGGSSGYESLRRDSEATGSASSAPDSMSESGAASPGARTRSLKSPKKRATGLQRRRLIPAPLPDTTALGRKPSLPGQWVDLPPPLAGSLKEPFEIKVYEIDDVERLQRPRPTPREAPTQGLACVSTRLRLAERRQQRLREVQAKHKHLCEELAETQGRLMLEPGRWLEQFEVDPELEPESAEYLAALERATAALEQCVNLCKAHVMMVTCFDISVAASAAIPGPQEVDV
UniProt Q96MP8: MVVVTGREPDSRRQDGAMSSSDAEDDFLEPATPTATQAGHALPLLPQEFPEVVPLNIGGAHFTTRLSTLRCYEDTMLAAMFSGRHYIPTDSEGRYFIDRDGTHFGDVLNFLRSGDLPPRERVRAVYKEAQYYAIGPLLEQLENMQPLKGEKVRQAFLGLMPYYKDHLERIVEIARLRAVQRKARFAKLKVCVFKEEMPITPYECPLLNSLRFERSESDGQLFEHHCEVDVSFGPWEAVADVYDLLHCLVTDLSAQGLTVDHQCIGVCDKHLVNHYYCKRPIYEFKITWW
UniProt Q8N6L1: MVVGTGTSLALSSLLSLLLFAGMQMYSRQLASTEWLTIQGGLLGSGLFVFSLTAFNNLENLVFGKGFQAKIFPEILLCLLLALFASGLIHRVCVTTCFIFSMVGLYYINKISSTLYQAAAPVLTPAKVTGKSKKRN
UniProt O95251, whole entry, looked up: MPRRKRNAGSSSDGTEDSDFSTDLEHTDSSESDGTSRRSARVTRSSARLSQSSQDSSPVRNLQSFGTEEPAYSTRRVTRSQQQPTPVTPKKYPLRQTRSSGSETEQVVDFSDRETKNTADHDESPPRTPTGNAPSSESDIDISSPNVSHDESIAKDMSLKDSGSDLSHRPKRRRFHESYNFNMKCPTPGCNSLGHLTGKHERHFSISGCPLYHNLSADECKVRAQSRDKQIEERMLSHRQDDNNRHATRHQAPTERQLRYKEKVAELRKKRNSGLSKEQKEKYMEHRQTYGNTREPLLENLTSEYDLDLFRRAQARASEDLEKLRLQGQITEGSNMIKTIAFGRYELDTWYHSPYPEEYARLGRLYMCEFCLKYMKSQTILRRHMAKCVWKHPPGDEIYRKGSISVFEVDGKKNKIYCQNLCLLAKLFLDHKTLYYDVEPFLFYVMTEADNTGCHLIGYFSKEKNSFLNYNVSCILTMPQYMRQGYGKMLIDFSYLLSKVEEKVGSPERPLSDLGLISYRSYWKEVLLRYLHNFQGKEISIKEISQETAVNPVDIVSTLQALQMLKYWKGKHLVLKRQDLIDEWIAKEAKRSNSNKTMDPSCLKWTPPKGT
UniProt Q9NVX7: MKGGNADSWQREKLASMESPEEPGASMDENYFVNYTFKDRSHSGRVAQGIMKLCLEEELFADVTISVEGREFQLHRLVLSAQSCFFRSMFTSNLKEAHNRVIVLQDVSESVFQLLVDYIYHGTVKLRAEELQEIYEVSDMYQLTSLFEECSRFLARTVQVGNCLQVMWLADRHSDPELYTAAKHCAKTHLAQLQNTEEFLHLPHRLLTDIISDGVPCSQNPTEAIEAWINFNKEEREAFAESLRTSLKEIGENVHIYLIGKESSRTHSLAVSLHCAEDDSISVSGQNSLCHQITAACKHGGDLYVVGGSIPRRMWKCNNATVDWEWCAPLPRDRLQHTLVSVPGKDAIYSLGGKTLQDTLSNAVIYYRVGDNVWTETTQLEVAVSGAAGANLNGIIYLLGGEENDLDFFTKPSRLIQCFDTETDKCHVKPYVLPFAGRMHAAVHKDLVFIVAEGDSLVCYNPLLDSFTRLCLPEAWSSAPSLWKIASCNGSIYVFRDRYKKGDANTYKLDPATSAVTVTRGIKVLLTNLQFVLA

What was measured:
Test in all cases: log2 fold change, soluble protein after heating vs DMSO (PISA); higher = thermal stabilisation; K562 cells, 10 uM, 30 min; active = over 0.2 and 3.5 SD of the protein, either way, in both replicates (recomputed)
bafetinib = compound: Cc1ccc(NC(=O)c2ccc(CN3CC[C@H](N(C)C)C3)c(C(F)(F)F)c2)cc1Nc1nccc(-c2cncnc2)n1 [bafetinib]
Outline: (§1)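 Thermal stability values are relative to control samples and come from duplicates. They are expressed as log2 fold changes. For measurement, K562 cells (2×10^6 cells/mL) received 10 μM compound for 30 min, and aliquots were heated for 3 min over 48°C-58°C, pooled, and extracted at 4°C in PBS with 0.5% NP-40. Soluble protein, the supernatant after 21,000xg for 90 min, was quantified by TMTpro 16plex LC-MS/MS with equalised channel sums.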

nilotinib = compound: Cc1cn(-c2cc(NC(=O)c3ccc(C)c(Nc4nccc(-c5cccnc5)n4)c3)cc(C(F)(F)F)c2)cn1 [nilotinib]
Outline: as §1

[1] = compound: Cc1nc(Nc2n[nH]c3c2CN(C(=O)N[C@H](CN(C)C)c2ccccc2)C3(C)C)c2sccc2n1
Outline: as §1

dasatinib = compound: Cc1nc(Nc2ncc(C(=O)Nc3c(C)cccc3Cl)s2)cc(N2CCN(CCO)CC2)n1 [dasatinib]
Outline: as §1

[2] = compound: Cc1ncc(-c2ccnc(Nc3ccc(S(C)(=O)=O)cc3)n2)n1C(C)C
Outline: as §1

[3] = compound: Cn1cc(-c2ccc3nnc(C(F)(F)c4ccc5ncccc5c4)n3n2)cn1
Outline: as §1

tipifarnib = compound: Cn1cncc1[C@@](N)(c1ccc(Cl)cc1)c1ccc2c(c1)c(-c1cccc(Cl)c1)cc(=O)n2C [tipifarnib]
Outline: as §1

mubritinib = compound: FC(F)(F)c1ccc(/C=C/c2nc(COc3ccc(CCCCn4ccnn4)cc3)co2)cc1 [mubritinib]
Outline: as §1

[4] = compound: Cn1cc(-c2ccc3c(c2)CCN3C(=O)Cc2cccc(C(F)(F)F)c2)c2c(N)ncnc21
Outline: as §1

[5] = compound: Cc1cccc(CC(=O)N2CCc3c2ccc(-c2cn(C)c4ncnc(N)c24)c3F)n1
Outline: as §1

Measured: log2 fold change

KDELR1 (UniProt P24390)
inactive: bafetinib -0.102 | nilotinib 0.038 | [1] -0.025 | dasatinib -0.436 | [2] -0.342 | [3] 0.172 | tipifarnib 0.132 | mubritinib -0.007

KIDINS220 isoform 2 (UniProt Q9ULH0)
inactive: bafetinib -0.102 | nilotinib -0.126 | [1] 0.046 | dasatinib 0.078 | [2] -0.025

JCHAIN (UniProt P01591)
inactive: bafetinib 0.669 | nilotinib -0.079 | [1] 0.146 | [2] 0.172 | mubritinib -0.178

KIAA1755 (UniProt Q5JYT7)
inactive: bafetinib -0.054 | dasatinib -0.027 | [4] 0.144 | [3] 0.039 | tipifarnib -0.001

KLF1 (UniProt Q13351)
inactive: bafetinib 0.207 | [5] 0.052 | nilotinib -0.061 | [1] 0.073 | dasatinib -0.456 | [2] -0.059 | [3] -0.12 | tipifarnib 0.02 | mubritinib -0.266

KIAA0513 (UniProt O60268)
inactive: bafetinib -0.165 | [5] -0.25 | nilotinib -0.262 | [1] -0.171 | [2] 0.164 | [4] -0.161 | tipifarnib 0.021 | mubritinib -0.113

KLHL7 (UniProt Q8IXQ5)
inactive: bafetinib -0.097 | nilotinib 0.205 | [1] -0.303 | dasatinib -0.142 | [2] -0.143 | [4] 0.128 | tipifarnib 0.071

Taken from the listing (2 entries):
KIAA0513 (UniProt O60268)
inactive: bafetinib -0.165 | [5] -0.25 | nilotinib -0.262 | [1] -0.171 | [2] 0.164 | [4] -0.161 | tipifarnib 0.021 | mubritinib -0.113

KLHL7 (UniProt Q8IXQ5)
inactive: bafetinib -0.097 | nilotinib 0.205 | [1] -0.303 | dasatinib -0.142 | [2] -0.143 | [4] 0.128 | tipifarnib 0.071

Remaining list, next part

JTB (UniProt O76095)
inactive: bafetinib 0.009 | nilotinib 0.047 | [1] -0.089 | dasatinib -0.028 | [2] -0.027 | [4] -0.098 | tipifarnib 0.009 | mubritinib 0.008

KIF13B (UniProt Q9NQT8)
inactive: bafetinib -0.007 | [5] 0.042 | dasatinib -0.189 | [4] 0.076 | tipifarnib 0.07 | mubritinib -0.147

JMJD4 (UniProt Q9H9V9)
inactive: bafetinib 0.084 | nilotinib 0.175 | [1] 0.177 | dasatinib 0.252 | [2] -0.18 | tipifarnib 0.019

KIAA0930 isoform 2 (UniProt Q6ICG6)
inactive: bafetinib -0.013 | nilotinib 0.021 | [1] -0.076 | dasatinib 0.07 | [2] -0.054 | [4] 0.309 | tipifarnib 0.009 | mubritinib -0.086

KCNN4 (UniProt O15554)
inactive: bafetinib -0.311 | nilotinib 0.114 | [1] 0.076 | dasatinib 0.039 | [2] 0.1 | [4] -0.219 | [3] -0.01 | tipifarnib 0.04 | mubritinib -0.03

KALRN (UniProt O60229)
inactive: bafetinib 0.044 | nilotinib -0.15 | [1] -0.061 | [2] 0.059 | [4] 0.118

KIF3B (UniProt O15066)
inactive: bafetinib 0.007 | [5] 0.122 | dasatinib -0.06 | [4] 0.002 | [3] -0.048 | tipifarnib -0.07 | mubritinib 0.115

KLF16 (UniProt Q9BXK1)
inactive: bafetinib 0.058 | [5] -0.098 | nilotinib 0.033 | [1] -0.279 | dasatinib -0.037 | [2] 0.16 | tipifarnib 0.037 | mubritinib -0.041

KLHL7 isoform 3 (UniProt Q8IXQ5)
inactive: bafetinib -0.111 | nilotinib -0.083 | [1] -0.088 | dasatinib 0.084 | [2] -0.127 | [4] 0.024 | tipifarnib -0.098 | mubritinib -0.001

JMJD7 (UniProt P0C870)
inactive: bafetinib 0.102 | nilotinib -0.048 | [1] -0.024 | dasatinib -0.172 | [2] 0

JPT2 isoform 2 (UniProt Q9H910)
inactive: bafetinib -0.041 | nilotinib 0.127 | [1] 0.004 | [2] -0.053 | tipifarnib 0.033 | mubritinib 0.004

KCMF1 (UniProt Q9P0J7)
inactive: bafetinib 0.05 | [5] 0.156 | nilotinib -0.005 | [1] 0.018 | [2] -0.07 | [4] 0.06 | [3] -0.04 | tipifarnib -0.176 | mubritinib 0.062

KDM1B (UniProt Q8NB78)
inactive: bafetinib -0.243 | nilotinib -0.11 | [1] -0.092 | dasatinib -0.599 | [2] 0.202 | mubritinib -0.077

JUNB (UniProt P17275)
inactive: bafetinib -0.067 | [5] -0.038 | nilotinib -0.073 | [1] 0.009 | [2] -0.059 | [4] -0.072 | [3] 0.182 | mubritinib -0.03

KCT2 (UniProt Q8NC54)
inactive: bafetinib -0.114 | [5] 0.045 | nilotinib -0.01 | [1] -0.023 | dasatinib 0.045 | [2] 0.021 | [4] 0.01 | [3] 0.073 | tipifarnib 0.125 | mubritinib 0.052

KCNK5 (UniProt O95279)
inactive: bafetinib -0.31 | [5] 0.025 | dasatinib -0.472 | [4] 0.139 | tipifarnib -0.183 | mubritinib 0.076

KIF26A (UniProt Q9ULI4)
inactive: bafetinib -0.053 | nilotinib 0.045 | [1] -0.042 | [2] 0.007 | [3] -0.046 | tipifarnib -0.057 | mubritinib -0.013

KCTD7 (UniProt Q96MP8)
inactive: bafetinib 0.219 | [5] 0.056 | nilotinib -0.024 | [1] -0.153 | dasatinib 0.072 | [2] -0.13 | tipifarnib 0.086 | mubritinib 0.099

KRTCAP2 isoform 2 (UniProt Q8N6L1)
inactive: bafetinib -0.12 | [5] -0.182 | nilotinib -0.064 | [1] -0.007 | dasatinib 0.069 | [2] 0.01 | [4] 0.069 | [3] 0.018 | mubritinib -0.009

KISS1R (UniProt Q969F8)
inactive: bafetinib 0.25 | [5] -0.002 | dasatinib -0.123 | [3] -0.056 | tipifarnib -0.15 | mubritinib -0.077

KAT7 (UniProt O95251)
inactive: bafetinib -0.095 | nilotinib 0.105 | [1] 0.059 | [2] 0.001 | [3] -0.014 | tipifarnib 0.058 | mubritinib 0.113

JAG2 (UniProt Q9Y219)
inactive: bafetinib -0.187 | nilotinib 0.056 | [1] -0.166 | dasatinib -0.067 | [2] 0.049 | [4] 0.026 | [3] 0.032 | tipifarnib -0.024

KIFC3 isoform 6 (UniProt Q9BVG8)
inactive: bafetinib -0.142 | [5] -0.26 | nilotinib -0.171 | [1] 0.088 | [2] -0.08 | [3] 0.187 | mubritinib 0.088

JUN (UniProt P05412)
inactive: bafetinib 0.083 | nilotinib 0.239 | [1] -0.08 | [2] -0.072 | [4] -0.158 | [3] -0.066 | mubritinib -0.151

KBTBD4 isoform 2 (UniProt Q9NVX7)
inactive: bafetinib 0.003 | nilotinib 0.047 | [1] 0.019 | dasatinib -0.037 | [2] 0.019 | [4] 0.17 | [3] -0.028 | mubritinib 0.064

KMT2C isoform 3 (UniProt Q8NEZ4)
inactive: bafetinib -0.209 | [5] -0.041 | nilotinib -0.049 | [1] -0.093 | dasatinib 0.043 | [2] 0.001 | [4] 0.094 | [3] -0.215 | mubritinib 0.083
